Series [1] deals with GST-Snail1-HA (UniProt Q02085). The series can be described thus: competition with a labelled probe. The conditions noted are these: cold mutant competitor against 32P wt E-box 1 probe; EMSA as described in ref 22; pH and temperature not given; recombinant protein; residues 1-264; protein details: N-term GST, C-term HA; label: unlabelled competitor.
Series [2] has as its target GST-Snail1-HA polyubiquitinated in vitro by SCF-FBXL5 (UniProt Q02085). Briefly: EMSA. The conditions noted are these: ubiquitinated Snail1 versus same reaction without E1, E2 and ubiquitin; EMSA as described in ref 22; pH and temperature not given; recombinant protein; residues 1-264; protein details: N-term GST, C-term HA; label: 32P. A general note: In EMSA bound probe runs differently from free probe, usually more slowly.

Amino acid sequences for entries named in this document (tags omitted). A change or cut given only in a name is not applied to a line headed by its entry.
UniProt Q02085: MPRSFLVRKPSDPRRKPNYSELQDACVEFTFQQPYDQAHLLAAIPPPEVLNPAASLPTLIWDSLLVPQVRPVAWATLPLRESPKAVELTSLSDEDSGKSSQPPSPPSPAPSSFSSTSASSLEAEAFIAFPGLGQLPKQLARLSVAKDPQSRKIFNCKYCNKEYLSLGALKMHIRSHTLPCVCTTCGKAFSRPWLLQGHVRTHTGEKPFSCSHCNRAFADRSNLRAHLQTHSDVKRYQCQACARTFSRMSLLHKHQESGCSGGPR

Series [3] deals with GST-Snail1-HA (UniProt Q02085). The series can be described thus: EMSA. The note with it: EMSA as described in ref 22, pH and temperature not given, recombinant protein, residues 1-264, protein details: N-term GST, C-term HA, label: 32P.

Construct, isoform or probe ends are uncertain for at least one entry. For some of these results: A negative result means that nothing was seen under these conditions. For some of these results: The comparison behind a weaker result is the experiment's own reference, which may not be listed here.

On to “GGCTGAGGGTTAACCTACCGCCACAGCC (double strand) [E-box 1 mutated]”, for which the binding result with GST-Snail1-HA [1] is “no binding”.

Take “GGCTGAGGGTTCACCTGCCGCCACAGCC (double strand) [E-cadherin promoter E-box 1 probe]”: the binding result in series [2] is reported as “binds more weakly”; in the series with GST-Snail1-HA [3] (SCF-FBXL5 present, no E1/E2/ubiquitin, binding not substantially decreased) it was “binds”; in the series with GST-Snail1-HA [3] (supershift with anti-HA, competed by cold wt probe), “binds”.

Values taken from PMC3902928, “Nuclear ubiquitination by FBXL5 modulates Snail1 DNA binding and stability” (Nucleic Acids Research, 2013).
